PubChem BioAssay AID1053208 – Peter MacCallum Cancer Centre – 2014

Screen: 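Genes whose silencing cuts survival of bone tumour cells only with doxorubicin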 (primary screen)
Cell system: mouse osteosarcoma cells, early-passage culture from an engineered mouse model of fibroblastic bone tumour
Reagent: siRNA pool against mouse genes, 40 nM
Time to read-out: about 120 h (48 h before drug, then 72 h with drug)
Challenge: doxorubicin 100 nM for 72 h, roughly 30-40% inhibitory dose
Measured: 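Luminescent ATP signal taken as viability with or without 100 nM doxorubicin for 72 h; mean of two wells set against non-targeting siRNA and turned into robust z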
Reading the numbers: viability z-score with doxorubicin: higher = more viable cells under doxorubicin; viability z-score without drug: higher = more viable cells with knock-down alone
Hit rule: 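Called active if knock-down leaves viability unchanged without drug (z within -2 to 2) but lowers it with doxorubicin (z at or under -2)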
In all, the deposit lists about 17,000 reagents; below is a random part of them. Over the whole deposit, 788 (4.7%) are marked active. 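Calls rest on z-score classes alone; an extra cut-off of viability at most 70% of control was not applied to them.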 Not all columns of the deposit are shown. Reagent sequences are not shown.

Knock-down of Gse1 (genetic suppressor element 1, coiled-coil protein) came out at: combined z-score class no change with or without drug; viability z-score with doxorubicin 0.11; viability z-score without drug -0.17; inactive.
Silencing of Pms1 (PMS1 homolog 1, mismatch repair system component) resulted in: combined z-score class no change with or without drug; viability z-score with doxorubicin 1.24; viability z-score without drug 1.18; inactive.
Against Epn1 (epsin 1), the values are combined z-score class no change with or without drug; viability z-score with doxorubicin -1.35; viability z-score without drug -1.18; inactive.
After knock-down of Or2ag12 (olfactory receptor family 2 subfamily AG member 12) the results were combined z-score class no change with or without drug; viability z-score with doxorubicin 0.22; viability z-score without drug -1.18; inactive.
Against Nppc (natriuretic peptide type C) the deposit lists combined z-score class no change with or without drug; viability z-score with doxorubicin 1.35; viability z-score without drug 0.67; inactive.
Knock-down of Tapbp (TAP binding protein) gave: combined z-score class no change with or without drug; viability z-score with doxorubicin 0.45; viability z-score without drug 0.84; inactive.
Ankfn1 (ankyrin-repeat and fibronectin type III domain containing 1) showed combined z-score class no change with or without drug; viability z-score with doxorubicin -0.45; viability z-score without drug 0; inactive.
After knock-down of Endod1 (endonuclease domain containing 1), the record shows combined z-score class no change with or without drug; viability z-score with doxorubicin -1.57; viability z-score without drug -0.17; inactive.
For Ankrd13d (ankyrin repeat domain 13 family, member D), the entry reads combined z-score class no change with or without drug; viability z-score with doxorubicin -0.9; viability z-score without drug -0.34; inactive.
After knock-down of Wdr18 (WD repeat domain 18), the screen gave combined z-score class no change with or without drug; viability z-score with doxorubicin -0.45; viability z-score without drug 0.34; inactive.

Records above whose target name starts with A or a:
Ankfn1 (ankyrin-repeat and fibronectin type III domain containing 1) → combined z-score class: no change with or without drug; viability z-score with doxorubicin: -0.45; viability z-score without drug: 0; Call: inactive
Ankrd13d (ankyrin repeat domain 13 family, member D) → combined z-score class: no change with or without drug; viability z-score with doxorubicin: -0.9; viability z-score without drug: -0.34; Call: inactive

The list goes on:
Against Thy1 (thymus cell antigen 1, theta), the entry reads combined z-score class no change with or without drug; viability z-score with doxorubicin -0.22; viability z-score without drug -0.51; inactive.
Knock-down of Cdkn1c (cyclin dependent kinase inhibitor 1C) gave: combined z-score class no change with or without drug; viability z-score with doxorubicin -0.67; viability z-score without drug 0.84; inactive.
With knock-down of Nxf2 (nuclear RNA export factor 2) the results were combined z-score class no change with or without drug; viability z-score with doxorubicin -1.69; viability z-score without drug -0.34; inactive.
Bub3 (BUB3 mitotic checkpoint protein) scored combined z-score class no change with or without drug; viability z-score with doxorubicin -0.45; viability z-score without drug -1.18; inactive.
Against Ugt3a1 (UDP glycosyltransferases 3 family, polypeptide A1), the values are combined z-score class no change with or without drug; viability z-score with doxorubicin 0.45; viability z-score without drug 1.18; inactive.
Knock-down of Lat2 (linker for activation of T cells family, member 2) gave: combined z-score class no change with or without drug; viability z-score with doxorubicin 1.24; viability z-score without drug 1.18; inactive.
Against Elp1 (elongator complex protein 1), the values are combined z-score class high cell count with doxorubicin only; viability z-score with doxorubicin 2.02; viability z-score without drug 0.51; inactive.
With knock-down of Recql4 (RecQ protein-like 4), the screen gave combined z-score class no change with or without drug; viability z-score with doxorubicin -0.11; viability z-score without drug -0.51; inactive.
Knock-down of Deptor (DEP domain containing MTOR-interacting protein) resulted in: combined z-score class high cell count without drug only; viability z-score with doxorubicin 0; viability z-score without drug 2.7; inactive.
Knock-down of Yipf7 (Yip1 domain family, member 7) gave: combined z-score class high cell count without drug only; viability z-score with doxorubicin -0.9; viability z-score without drug 2.02; inactive.
Knock-down of Pcx (pyruvate carboxylase) gave: combined z-score class no change with or without drug; viability z-score with doxorubicin 0; viability z-score without drug -0.17; inactive.
Depletion of Glce (glucuronyl C5-epimerase) gave: combined z-score class no change with or without drug; viability z-score with doxorubicin 1.12; viability z-score without drug 0.84; inactive.
For Dyrk2 (dual-specificity tyrosine phosphorylation regulated kinase 2), the values are combined z-score class no change with or without drug; viability z-score with doxorubicin 1.12; viability z-score without drug 0.51; inactive.
Depletion of D830024N08Rik (RIKEN cDNA D830024N08 gene) came out at: combined z-score class no change with or without drug; viability z-score with doxorubicin 0; viability z-score without drug 0.17; inactive.
Zfr (zinc finger RNA binding protein) scored combined z-score class high cell count with and without drug; viability z-score with doxorubicin 2.7; viability z-score without drug 2.53; inactive.
Silencing of Dstn (destrin) came out at: combined z-score class no change with or without drug; viability z-score with doxorubicin 0; viability z-score without drug 0.34; inactive.
With knock-down of Zfp341 (zinc finger protein 341), the record shows combined z-score class no change with or without drug; viability z-score with doxorubicin -0.45; viability z-score without drug 0.84; inactive.
After knock-down of Or51a43 (olfactory receptor family 51 subfamily A member 43), the record shows combined z-score class no change with or without drug; viability z-score with doxorubicin 1.35; viability z-score without drug 1.35; inactive.
